Data taken from publication doi:10.1101/525527.
These are yes or no findings as the source states them, for the method shown. In cells and extracts the contact can be indirect. Some binding calls cover weakened binding; strength is not graded here.

Protein sequences, listed by entry. Tags and fused reporters are not part of them.
UniProt P35637: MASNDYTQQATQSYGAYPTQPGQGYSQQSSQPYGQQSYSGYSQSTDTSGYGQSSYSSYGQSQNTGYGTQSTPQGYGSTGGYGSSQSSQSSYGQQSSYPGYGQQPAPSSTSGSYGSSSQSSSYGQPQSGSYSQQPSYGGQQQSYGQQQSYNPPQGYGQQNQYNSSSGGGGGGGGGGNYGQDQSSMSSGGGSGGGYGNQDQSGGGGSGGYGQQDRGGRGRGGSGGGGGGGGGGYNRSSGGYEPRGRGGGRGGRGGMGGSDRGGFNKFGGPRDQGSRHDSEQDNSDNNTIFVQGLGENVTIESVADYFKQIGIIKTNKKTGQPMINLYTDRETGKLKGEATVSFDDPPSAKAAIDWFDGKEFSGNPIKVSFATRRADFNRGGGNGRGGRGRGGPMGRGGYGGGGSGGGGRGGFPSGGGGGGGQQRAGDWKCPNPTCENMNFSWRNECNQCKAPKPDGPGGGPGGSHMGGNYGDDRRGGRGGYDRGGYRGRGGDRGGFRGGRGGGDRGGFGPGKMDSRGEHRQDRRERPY

Key:
[1] = molecular target: AGO1 fused with C-terminal Flag- and HA-epitope tags (e-AGO1) (human) (UniProt Q9UL18); test: co-IP
[2] = molecular target: AGO2 fused with C-terminal Flag- and HA-epitope tags (e-AGO2) (UniProt Q9UKV8); test: co-IP

Row | binding [1] | binding [2] | Substance
1 | binds |  | FUS (from UniProt P35637 1-526)
2 | binds | no binding | HNRNPK (from UniProt P61978 1-463)
